These are yes or no findings as the source states them, for the method shown. In cells and extracts the contact can be indirect.
Target: Flag-tagged TauP301S (HTau 0N4R, P301S mutant) (human)
Assay: co-IP; HEK 293T cells transfected with vector or Flag-TauP301S for 48 h; lysed in NP-40 buffer; lysate incubated with FLAG beads for 4 h; beads washed six times; immunoblot

B1: mixed lineage kinase domain-like protein (protein, UniProt Q8NB16 1-471)
chain: MENLKHIITLGQVIHKRCEEMKYCKKQCRRLGHRVLGLIKPLEMLQDQGKRSVPSEKLTTAMNRFKAALEEANGEIEKFSNRSNICRFLTASQDKILFKDVNRKLSDVWKELSLLLQVEQRMPVSPISQGASWAQEDQQDADEDRRAFQMLRRDNEKIEASLRRLEINMKEIKETLRQYLPPKCMQEIPQEQIKEIKKEQLSGSPWILLRENEVSTLYKGEYHRAPVAIKVFKKLQAGSIAIVRQTFNKEIKTMKKFESPNILRIFGICIDETVTPPQFSIVMEYCELGTLRELLDREKDLTLGKRMVLVLGAARGLYRLHHSEAPELHGKIRSSNFLVTQGYQVKLAGFELRKTQTSMSLGTTREKTDRVKSTAYLSPQELEDVFYQYDVKSEIYSFGIVLWEIATGDIPFQGCNSEKIRKLVAVKRQQEPLGEDCPSELREIIDECRAHDPSVRPSVDEILKKLSTFSK
- binding: no binding

From paper PMC9377071
